What all share (format): cell-based
The test system of one assay is MCF-7 cells. Description: MTS cytotoxicity assay, MCF-7. Particulars: Homo sapiens, MCF7, 72 h incubation. The text has this:
(§1) M. Rusin from the Maria Sklodowska-Curie Memorial Cancer Centre and Institute of Oncology in Gliwice, Poland. […] G. Kramer-Marek from the Institute of Cancer Research in London, United Kingdom. The human suspension chronic myelogenous leukemia cell line K562 and pancreas ductal adenocarcinoma cell line PANC-1 were purchased from Sigma-Aldrich (St. Louis, MO, USA), while the normal human dermal fibroblasts cell line NHDF were purchased from PromoCell. […] Each medium contained a combination of two antibiotics: penicillin and streptomycin (1% v/v; Gibco). All of these cell lines were grown under standard conditions at 37 °C with a 5% CO2 humidified atmosphere. Moreover, all of the cell lines were routinely tested for mycoplasma using the PCR technique with specific Mycoplasma primers to confirm that there was no contamination.
(§2) The assay was performed following a 72 h incubation with the various concentrations of the tested compounds. Then, 100 µL DMEM without phenol red with 20 µL of the CellTiter 96®AQueous One Solution-MTS (Promega, Promega, WI, USA) was added to each well and incubated for 1 h or 3 h (PANC-1) at 37 °C. The optical densities of the samples were measured at 490 nm using a multi-plate reader (Synergy 4, BioTek, Winooski, VT, USA). […] Each individual compound was tested in triplicate in a single experiment with each experiment being performed three or four times.

Another assay deals with HCT 116 p53^−/− cells. Description: MTS cytotoxicity assay, HCT 116 p53-/-. The settings on record: Homo sapiens, 72 h incubation.
Text: as §1, §2

The subject of another assay is U-251 cells. The assay can be described thus: MTS cytotoxicity assay, U-251. The settings on record: Homo sapiens, 72 h incubation.
Text: as §1, §2

The test system of another assay is HCT 116 p53^+/+ cells. Description: MTS cytotoxicity assay, HCT 116 p53+/+. Particulars: Homo sapiens, 72 h incubation.
Text: as §1, §2

The test system of the next assay is A549 cells. The assay can be described thus: MTS cytotoxicity assay, A549. The settings on record: Homo sapiens, A549, 72 h, 72 h incubation.
Text: as §1, §2

The next assay has as its system NHDF cells. Description: MTS cytotoxicity assay, normal fibroblasts NHDF. The settings on record: NHDF normal human fibroblasts, 72 h incubation. The text has this:
The human colon carcinoma cell line HCT 116 wild type (p53^+/+), the human breast carcinoma cell line MCF-7 and the human alveolar basal epithelial cell line A549 were obtained from ATCC. The human colon cancer cell line HCT 116 with a p53 deletion (p53^−/−) was kindly supplied by prof. M. Rusin from the Maria Sklodowska-Curie Memorial Cancer Centre and Institute of Oncology in Gliwice, Poland. The glioblastoma cell line U-251 was kindly provided by prof. G. Kramer-Marek from the Institute of Cancer Research in London, United Kingdom. The human suspension chronic myelogenous leukemia cell line K562 and pancreas ductal adenocarcinoma cell line PANC-1 were purchased from Sigma-Aldrich (St. Louis, MO, USA), while the normal human dermal fibroblasts cell line NHDF were purchased from PromoCell. All of the adherent cancer cell lines were cultured in Dulbecco’s modified Eagle’s medium (DMEM) that had been supplemented with 12% heat-inactivated fetal bovine serum–FBS (all from Sigma-Aldrich) in 75 cm^2 flasks (Nunc). […]
The cells were seeded in 96-well plates (Nunc) at a density of 5000 cells per well (K562, HCT 116, MCF-7, U-251, A549, PANC-1) or 4000 cell per well (NHDF) and incubated under standard conditions at 37 °C for 24 h. […] The optical densities of the samples were measured at 490 nm using a multi-plate reader (Synergy 4, BioTek, Winooski, VT, USA). […]

A further assay relates to PANC-1 cells. The assay can be described thus: MTS cytotoxicity assay, PANC-1. The settings on record: Homo sapiens, 72 h incubation.
Text: as §1, §2

SMILES strings stand for the structures.

For the compound `Cc1ccc(NC(=O)c2ccc(CN3CCN(C)CC3)cc2)cc1Nc1nccc(-c2cccnc2)n1` [Imatinib, reference compound], the IC50 with MCF-7 cells is over 25 µM; in the assay on HCT 116 p53^−/− cells, 51.2 ± 4.09 µM; in the assay on U-251 cells it was over 25 µM; in the assay with HCT 116 p53^+/+ cells it was 44.6 ± 2.41 µM; in the assay on A549 cells, over 25 µM; with NHDF cells, over 25 µM. Also, in the assay on PANC-1 cells, the IC50 was over 25 µM.

The values above are taken from publication PMC8068801, “Novel Benzenesulfonate Scaffolds with a High Anticancer Activity and G2/M Cell Cycle Arrest” (Cancers, 2021).
